Experimental data as given in article PMC10740831 (Biomedicines, 2023).

Tests used:
[1] = general procedure: Fmoc solid-phase peptide synthesis; Rink Amide MBHA; HBTU/DIPEA; conditions: whole synthesis; for crude HPLC purity: chromatographic purity
[2] = general procedure: Fmoc solid-phase peptide synthesis; 2-CTC; HBTU/DIPEA; conditions: whole synthesis; for crude HPLC purity: chromatographic purity

Substance	crude yield [1] [%]	crude HPLC purity [1] [%]	crude yield [2] [%]	crude HPLC purity [2] [%]
B-Phe-Glu-Leu-Leu-NH2	89	100		
PEPTIDE1{[PyrA].F.E.L.L.[am]}$$$$V2.0	89	85		
PEPTIDE1{[PyrA].F.E.L.L}$$$$V2.0			49	88
PEPTIDE1{[PyrB].F.E.L.L}$$$$V2.0			27	100

Some peptides are written in HELM: one residue between dots, names in brackets for other building blocks, links after the first $.
